Experimental data taken from patent US20240226211A9, “SEAWEED EXTRACTS, ISOLATED COMPOUNDS, AND METHODS OF TREATMENT” (University of Florida Research Foundation, Incorporated, priority 2017, published 2024).

Experiments:
[1] = system: gut microbial gene expression; assay: Microbial transcriptomic analysis of large intestine; assay type: in vivo, mouse; details: CY and NP pooled
[2] = In vitro alkylation experiment with excess NAC (or glutathione), LC-MS; details: excess of NAC (or glutathione), 2 h at room temperature

Which “microbial genes differentially expressed between low and high groups” value [1] does the source give for `CC(C)=CCC/C(C)=C/Cc1cc(O)c(Br)cc1O` [Compound 1, (E)-2-bromo-5-(3,7-dimethylocta-2,6-dien-1-yl)benzene-1,4-diol] here?
Its value is 10,107 genes.

And the “microbial genes differentially expressed versus control mice” value ([1]; high concentration)?
Its value is 141 genes.

What about the “microbial genes differentially expressed versus control mice” value ([1]; low concentration) of the same molecule?
Its value is 605 genes.

And the “chemical reactivity towards NAC (mass tags by LC-MS)” value [2]?
The value was “lacked reactivity”.

Which “chemical reactivity towards NAC (mass tags by LC-MS)” value [2] does the source give for cymopol quinone [Compound 5] here?
The value was “Various mass tags were observed”.
